From US9840623B2, “Detoxification method for obtaining a zinc containing pigment compound with no ecotoxicity” (Societe Nouvelle Des Couleurs Zinciques, priority 2009, dated 2017)

Experiment: Anti-corrosion test in solvent-phase epoxy amine primer, salt fog ASTM B117
Conditions: salt fog 600 hours

Substance: Zn3(PO4)2.0 to 4H2O [PZ]
- Degree of rusting NF-ISO 4828-3 T 30140-3 (epoxy amine primer 50 μm, polyurethane topcoat 100 μm): RI1
- Complete plate general rating ASTM* 1654 (epoxy amine primer, 10 = 0% degradation, 0 = more than 75% degradation): 6
- Scribe corrosion ASTM* 1654 (epoxy amine primer, 10 = 0 mm at scribe, 0 = 16 mm and more): 6
